These are yes or no findings as the source states them, for the method shown. In cells and extracts the contact can be indirect. Here binding means that the protein was enriched with, or labelled near, the bait; the list need not be complete.
biological target: TurboID-DR6 (UniProt O75509); assay: proximity labelling

The chains behind the UniProt entries cited, without tags or fusion partners. Residues count along the entry.
UniProt P04406: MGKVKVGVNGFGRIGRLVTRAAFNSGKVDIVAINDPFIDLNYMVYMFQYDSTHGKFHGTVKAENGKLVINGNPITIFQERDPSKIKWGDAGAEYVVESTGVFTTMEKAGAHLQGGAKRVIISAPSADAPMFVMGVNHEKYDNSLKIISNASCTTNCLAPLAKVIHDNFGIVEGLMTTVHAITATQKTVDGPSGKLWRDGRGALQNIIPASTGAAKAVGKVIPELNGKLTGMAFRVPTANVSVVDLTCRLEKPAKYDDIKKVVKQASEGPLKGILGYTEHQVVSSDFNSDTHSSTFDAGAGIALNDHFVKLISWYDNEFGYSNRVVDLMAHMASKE
UniProt Q92783: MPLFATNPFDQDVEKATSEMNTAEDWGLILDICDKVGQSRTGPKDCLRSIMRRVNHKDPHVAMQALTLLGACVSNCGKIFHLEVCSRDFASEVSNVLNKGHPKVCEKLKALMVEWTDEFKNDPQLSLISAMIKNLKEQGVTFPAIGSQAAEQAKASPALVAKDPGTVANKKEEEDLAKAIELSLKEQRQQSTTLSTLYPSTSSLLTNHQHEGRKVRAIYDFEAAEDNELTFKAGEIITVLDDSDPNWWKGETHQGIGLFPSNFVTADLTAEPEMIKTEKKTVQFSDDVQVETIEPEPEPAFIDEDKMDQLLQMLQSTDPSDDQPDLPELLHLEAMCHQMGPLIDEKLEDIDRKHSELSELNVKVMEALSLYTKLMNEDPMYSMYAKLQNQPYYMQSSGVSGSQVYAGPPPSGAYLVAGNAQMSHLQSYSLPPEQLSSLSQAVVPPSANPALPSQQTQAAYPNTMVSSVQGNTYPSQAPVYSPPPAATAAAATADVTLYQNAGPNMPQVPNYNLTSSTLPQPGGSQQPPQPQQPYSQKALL
UniProt P01137, residues 279-390: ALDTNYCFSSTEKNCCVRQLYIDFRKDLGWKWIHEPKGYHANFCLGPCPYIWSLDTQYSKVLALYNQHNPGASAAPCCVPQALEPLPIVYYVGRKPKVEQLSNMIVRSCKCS

binding | Substance
binds | glyceraldehyde 3-phosphate dehydrogenase (GAPDH) (from UniProt P04406 1-335)
binds | signal-transducing adapter molecule (STAM) (from UniProt Q92783 1-540)
binds | transforming growth factor β1 (TGFB1) (from UniProt P01137 279-390)

From paper doi:10.1101/2024.10.21.619555
